From patent publication US20130123345A1, “METHOD OF TREATING A VIRAL INFECTION D[…] […] ADENOSINE RECEPTOR PATHWAY” (THE OHIO STATE UNIVERSITY, priority 2010, published 2013)
At least one compound was matched to its structure with a doubt left.

System: influenza H1N1 virus (A/WSN/33) infected BALB/c mice
Assay: Alveolar fluid clearance in influenza-infected mice (compound added to fluid clearance instillate)
Assay type: in vivo, mouse
Settings: 2 d.p.i., 20 μM in fluid clearance instillate, 30-min ventilation period

C/C(O)=C(\C#N)C(=O)Nc1ccc(C(F)(F)F)cc1 [A77-1726]
WSN virus-induced suppression of alveolar fluid clearance: reversed
